Measurements from PMC10781284.

Chains of the proteins cited; added tags and fusions are not shown. Residues count along the entry.
UniProt P08962, 2-238: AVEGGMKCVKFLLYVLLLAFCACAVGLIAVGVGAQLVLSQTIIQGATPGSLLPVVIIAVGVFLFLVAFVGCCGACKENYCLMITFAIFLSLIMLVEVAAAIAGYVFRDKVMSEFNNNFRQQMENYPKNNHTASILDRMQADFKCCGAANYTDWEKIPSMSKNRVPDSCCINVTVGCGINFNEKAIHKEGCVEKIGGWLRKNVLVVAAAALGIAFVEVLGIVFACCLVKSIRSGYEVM

Biological target: CD63 (LAMP3, on HeLa exosomes) (human) (UniProt P08962)
Assay: exosome capture on aptamer-coated microfluidic channel, fluorescence imaging
Details: 5 µM aptamer for coating, whole exosomes, 3' (CH2)6-NH2, coupled to glass via PEI/glutaraldehyde, PBS (10 mM, pH 7.4) washes, 2% BSA block at room temperature, exosomes in culture medium, binding buffer of the aptamer not stated, native protein, single-stranded DNA

Does “CACCCCACCTCGCTCCCGTGACACTAATGCTA [CD63 aptamer (CD63 adaptor strand)]” bind?
Result: binds

For at least one entry, the source does not settle the construct or the ends of the probe. At least one verdict rests on a figure or table, not on a statement of the authors.
